Test results published in PubChem BioAssay AID504467 (National Center for Advancing Translational Sciences (NCATS), 2011).
The whole screen tested about 330,000 compounds, of which about 7,700 (2.3%) were called active. The inconclusive results got no clear call from the source; some entries with a clear call stand among them for comparison. Calls follow the shape of the dose curve; as a rule, active = well fitted inhibition curve with a large enough effect; inconclusive = small, poorly fitted or top-dose-only effect, or effect the other way; inactive = flat fitted curve, though single readings scatter. Where the call is inconclusive, the potency comes from a doubtful curve fit.

Test: qHTS screen for small molecules that inhibit ELG1-dependent DNA repair in human embryonic kidney (HEK293T) cells expressing luciferase-tagged ELG1; also: nearly all actives have a fitted effect of over 55% in size
Conditions: HEK293T ELG1-luciferase reporter, luminescence, 16 h, DNA damage induced by 5-fluorouridine; activity change, negative = inhibition: at 46.1 µM (top of the series)
In short: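 Quantitative HTS, concentration-response format. 2,000 cells/well co-treated with 5-fluorouridine and compound, 16 hr in 5% CO2 at 37 °C; ONE-Glo luminescence read after 30 min.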
% is scaled to controls: 0 for no effect and ±100 for the full control effect; potency is read from the fitted curve at half-maximal effect.

Question: Which Potency does the source give for `Cc1ccc(NC(=O)CN2c3cccc4cccc(c34)S2(=O)=O)cc1S(=O)(=O)N1CCOCC1` here?
Answer: Its Potency is inconclusive: 23.1 µM [inhibitor, single point].

Question: With `CN1C(=C2C(=O)OC(C)(C)OC2=O)Sc2ccccc21` as the compound, how does the Potency read?
Answer: Its Potency is inconclusive: 20.6 µM [activator, partial curve].

Question: Which “activity change, negative = inhibition” value does the source give for `Cc1nnc(SCC(=O)N(C2CCCCC2)C2CCS(=O)(=O)C2)n1N` (stereo not drawn) here?
Answer: The value was inactive: 20.3%.

Question: With `COc1ccc(C(=O)Nc2ccc(S(=O)(=O)Nc3onc(C)c3C)cc2)cc1OC` as the compound, how does the “activity change, negative = inhibition” value read?
Answer: The value was inactive: 4.09%.

Question: For `O=[N+]([O-])c1ccc(/C=C/c2ccncc2)cc1`, which Potency is on record?
Answer: Its Potency is inconclusive: 18.3 µM [activator, partial curve].

Question: Which “activity change, negative = inhibition” value does the source give for `O=S(=O)(c1ccc(SCCOc2ccc(F)cc2)nc1)N1CCCC1` here?
Answer: The value was inactive: -0.198%.

Question: For `CCCNc1c(NC(=O)C2CCC(C)CC2)c(=O)oc2ccccc12` (stereo not drawn), which “activity change, negative = inhibition” value is on record?
Answer: The value was inactive: -3.94%.

Question: With `Clc1ccc(-c2nnc(COc3ncnc4sccc34)o2)cc1` as the compound, how does the Potency read?
Answer: Its Potency is inconclusive: 14.6 µM [activator, single point].

Question: Which Potency does the source give for `CCc1ccccc1N(CC(=O)Nc1cccc(N(C)S(C)(=O)=O)c1)S(C)(=O)=O` here?
Answer: The Potency was inconclusive: 25.9 µM [inhibitor, single point].

Question: Which Potency does the source give for `O=C(Nc1nc(-c2ccccn2)cs1)C1CC1` here?
Answer: The Potency was inconclusive: 14.6 µM [activator, partial curve].

Question: Which Potency does the source give for `c1ccc(CCN=C2CCCc3c2[nH]c2ccccc32)cc1` here?
Answer: Its Potency is inconclusive: 18.3 µM [activator, partial curve].

Question: For `COCCCNC(=S)N/N=C/c1ccc(OC)cc1`, which “activity change, negative = inhibition” value is on record?
Answer: Its value is inactive: 0.0859%.

Question: Which “activity change, negative = inhibition” value does the source give for `O=C(CN(C1CCCCC1)S(=O)(=O)c1ccc(Cl)cc1)NCc1cccnc1` here?
Answer: The value was inactive: -24.3%.

Question: Which Potency does the source give for `Cc1cc(N(CCO)CCO)ccc1N=Nc1cc(F)ccc1F` here?
Answer: The Potency was inconclusive: 23.1 µM [activator, partial curve].

Question: Which Potency does the source give for `O=C(CCn1c(=O)c2sccc2n(CC(=O)OCc2ccccc2)c1=O)NCc1ccco1` here?
Answer: The Potency was inconclusive: 16.4 µM [inhibitor, single point].

Question: With `COC(=O)c1cc(NC(=O)CN2C(=O)C(=O)N(C3CCCC3)C2=O)cc(C(=O)OC)c1` as the compound, how does the Potency read?
Answer: The Potency was inconclusive: 13 µM [inhibitor, partial curve, poor fit].

Question: Which Potency does the source give for `COCCNC(=O)COC(=O)c1ccc(OCC(=O)Nc2ccccc2OC)c(OC)c1` here?
Answer: The Potency was inconclusive: 29.1 µM [inhibitor, single point].

Question: For `COc1ccc(CCNC(=O)/C=C/c2ccc(OC)c(S(=O)(=O)N3CCOCC3)c2)cc1`, which “activity change, negative = inhibition” value is on record?
Answer: The value was inactive: -18.1%.

Question: With `Cc1cccc(C)c1NC(=O)CN(C)C(=O)c1ccc(-c2cccc(C(F)(F)F)c2)o1` as the compound, how does the Potency read?
Answer: The Potency was inconclusive: 29.1 µM [inhibitor, single point].

Question: With `Cc1ccccc1N1CCN(C2=NC(=O)/C(=C\c3cccs3)S2)CC1` as the compound, how does the Potency read?
Answer: Its Potency is inconclusive: 18.4 µM [activator, partial curve, poor fit].

Question: Which Potency does the source give for `CCOC(=O)N1CCC(NC(=O)c2ccc3c(c2)sc2nc(-c4cccc(OC)c4)cn23)CC1` here?
Answer: Its Potency is active: 2.91 µM.

Question: For `Cc1ccc(-c2csc(NC(=O)c3ccc(S(=O)(=O)N4CCc5ccccc54)cc3)n2)cc1`, which “activity change, negative = inhibition” value is on record?
Answer: Its value is inactive: 4.4%.

Question: With `Cn1c(CCNC(=O)c2cc(COc3ccc(F)c(F)c3)on2)nc2ccccc21` as the compound, how does the “activity change, negative = inhibition” value read?
Answer: Its value is inactive: 2.71%.

Question: With `CC1(C)Oc2ccc(NC(=O)c3ccco3)cc2O1` as the compound, how does the Potency read?
Answer: The Potency was inconclusive: 6.31 µM [activator, partial curve, poor fit].

Question: With `CCc1ccc(-n2nnnc2SCC(=O)Nc2ccc(NC(C)=O)cc2)cc1` as the compound, how does the Potency read?
Answer: The Potency was inconclusive: 9.2 µM [inhibitor, partial curve].

Question: Which Potency does the source give for `CN(C)C=Nc1ncc2c3ccccc3n(CCN(C)C)c2c1C#N` here?
Answer: Its Potency is active: 6.51 µM.

Question: For `Cc1ccc(C)c(S(=O)(=O)N2CCN(C(=O)CN3C(=O)C4CC=CCC4C3=O)CC2)c1` (stereo not drawn), which “activity change, negative = inhibition” value is on record?
Answer: Its value is inactive: 3.48%.

Question: With `COc1ccccc1CC(=O)Nc1ccc(-c2noc(COc3ccc(Br)cc3)n2)cc1` as the compound, how does the “activity change, negative = inhibition” value read?
Answer: The value was inactive: 14.7%.

Question: With `COc1ccsc1C(=O)Nc1ccc(F)cc1F` as the compound, how does the Potency read?
Answer: Its Potency is inconclusive: 29.1 µM [activator, single point].

Question: With `Cc1ccc(/C=C/c2nc3ccccc3s2)s1` as the compound, how does the Potency read?
Answer: Its Potency is inconclusive: 0.92 µM [activator, partial curve].

Question: Which Potency does the source give for `Cc1ccc2nc(Cl)c(/C=N/Nc3nc(C)cc(C)n3)c(=O)n2c1` here?
Answer: Its Potency is inconclusive: 29.1 µM [inhibitor, single point].

Question: Which Potency does the source give for `NC(=O)Cn1nc(C(F)(F)F)c2c1CCCC2` here?
Answer: Its Potency is inconclusive: 9.2 µM [inhibitor, partial curve, poor fit].

Question: Which Potency does the source give for `COc1ccccc1NC(=O)CSc1nc2sc3c(c2c(=O)n1-c1ccccc1)CCN(C)C3` here?
Answer: Its Potency is inconclusive: 6.51 µM [activator, full curve, poor fit].

Question: For `CC(=O)Nc1ccc(OCC(O)Cn2c3ccccc3c3ccccc32)c(C)c1` (stereo not drawn), which Potency is on record?
Answer: The Potency was inconclusive: 23.1 µM [inhibitor, partial curve].

Question: For `COc1cccc(C(=O)Nc2nc3c(s2)CN(C)CC3)c1`, which Potency is on record?
Answer: The Potency was inconclusive: 35.5 µM [activator, single point].

Question: With `O=C(O)C1CC=CCC1C(=O)N1CC=C(c2ccccc2)CC1` (stereo not drawn) as the compound, how does the Potency read?
Answer: Its Potency is inconclusive: 16.4 µM [activator, single point].

Question: With `CC1N/C(=C\C(=O)c2ccccc2)N(O)C1(C)C` (stereo not drawn) as the compound, how does the Potency read?
Answer: The Potency was inconclusive: 7.31 µM [activator, partial curve].

Question: Which Potency does the source give for `O=C(Nc1cccc2ncccc12)c1cc([N+](=O)[O-])ccc1Cl` here?
Answer: Its Potency is inconclusive: 29.1 µM [inhibitor, single point].

Question: Which Potency does the source give for `CCN(CC)S(=O)(=O)c1ccc(S(=O)(=O)N(Cc2ccccn2)Cc2ccco2)cc1` here?
Answer: Its Potency is inconclusive: 16.4 µM [inhibitor, partial curve].

Question: For `CNc1ccc(C(=O)N2CCN(S(=O)(=O)c3ccc4c(c3)OCCCO4)CC2)cc1[N+](=O)[O-]`, which Potency is on record?
Answer: The Potency was inconclusive: 20.6 µM [inhibitor, single point].

Question: For `CCN(CC)S(=O)(=O)c1c(OC)cc(C)c(Cl)c1C`, which Potency is on record?
Answer: Its Potency is inconclusive: 14.6 µM [inhibitor, partial curve, poor fit].

Question: For `Cc1ccc(NS(=O)(=O)c2ccc(-c3csc(C)n3)s2)c(C)c1`, which Potency is on record?
Answer: The Potency was inconclusive: 1.46 µM [inhibitor, partial curve, poor fit].

Question: For `CN1CCN(c2ccc(NC(=O)c3ccco3)cc2Cl)CC1`, which Potency is on record?
Answer: The Potency was inconclusive: 7.3 µM [activator, partial curve].
